This is one part of the list.
Compound: Cc1cccc(CC(=O)N2CCc3c2ccc(-c2cn(C)c4ncnc(N)c24)c3F)n1
Assay: log2 fold change, soluble protein after heating vs DMSO (PISA); higher = thermal stabilisation; K562 cells, 10 uM, 30 min; active = over 0.2 and 3.5 SD of the protein, either way, in both replicates (recomputed)
Method in brief: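 Thermal stability values are relative to control samples and come from duplicates. They are expressed as log2 fold changes. For measurement, K562 cells (2×10^6 cells/mL) received 10 μM compound for 30 min, and aliquots were heated for 3 min over 48°C-58°C, pooled, and extracted at 4°C in PBS with 0.5% NP-40. Soluble protein, the supernatant after 21,000xg for 90 min, was quantified by TMTpro 16plex LC-MS/MS with equalised channel sums.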

The chains behind the UniProt entries cited, without tags or fusion partners. Where a name states a change or a piece, a line headed by the entry shows the natural chain unless it says otherwise.
UniProt O95630, whole entry, looked up: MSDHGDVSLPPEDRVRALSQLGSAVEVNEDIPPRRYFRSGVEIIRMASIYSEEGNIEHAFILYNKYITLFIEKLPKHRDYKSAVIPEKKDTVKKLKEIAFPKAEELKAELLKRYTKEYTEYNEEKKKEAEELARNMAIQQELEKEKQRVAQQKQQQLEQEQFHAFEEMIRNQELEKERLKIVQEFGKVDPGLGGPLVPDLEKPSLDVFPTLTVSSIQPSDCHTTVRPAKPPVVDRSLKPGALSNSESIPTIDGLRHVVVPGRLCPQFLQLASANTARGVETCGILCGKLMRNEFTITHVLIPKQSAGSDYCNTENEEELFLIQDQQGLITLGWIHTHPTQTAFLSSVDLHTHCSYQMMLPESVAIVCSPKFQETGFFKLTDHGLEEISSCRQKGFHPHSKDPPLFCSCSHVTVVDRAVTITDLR
UniProt P49458: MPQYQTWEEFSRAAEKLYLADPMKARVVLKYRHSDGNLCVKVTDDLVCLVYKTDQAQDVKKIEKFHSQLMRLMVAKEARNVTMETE
UniProt O15270: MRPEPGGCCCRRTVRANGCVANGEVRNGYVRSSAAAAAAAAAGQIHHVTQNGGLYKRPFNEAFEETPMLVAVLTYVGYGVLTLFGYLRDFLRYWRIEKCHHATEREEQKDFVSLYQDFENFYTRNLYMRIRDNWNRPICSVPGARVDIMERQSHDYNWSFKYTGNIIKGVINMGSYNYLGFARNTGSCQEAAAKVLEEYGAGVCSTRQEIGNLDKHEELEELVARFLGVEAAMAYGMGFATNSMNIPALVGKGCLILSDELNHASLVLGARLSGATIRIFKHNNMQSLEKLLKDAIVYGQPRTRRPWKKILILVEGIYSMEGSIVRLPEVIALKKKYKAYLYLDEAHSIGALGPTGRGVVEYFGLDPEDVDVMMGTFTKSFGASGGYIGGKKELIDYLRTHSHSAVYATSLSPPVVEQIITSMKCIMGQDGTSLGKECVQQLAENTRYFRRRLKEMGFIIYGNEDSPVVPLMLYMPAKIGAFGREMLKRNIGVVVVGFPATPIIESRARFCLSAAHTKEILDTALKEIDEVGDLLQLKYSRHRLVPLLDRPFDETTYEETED
UniProt P10124: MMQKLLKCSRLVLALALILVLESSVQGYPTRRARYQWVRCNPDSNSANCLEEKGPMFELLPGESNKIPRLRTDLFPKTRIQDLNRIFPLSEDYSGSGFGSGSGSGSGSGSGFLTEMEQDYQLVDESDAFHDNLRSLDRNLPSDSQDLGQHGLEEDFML
UniProt Q9UQ90: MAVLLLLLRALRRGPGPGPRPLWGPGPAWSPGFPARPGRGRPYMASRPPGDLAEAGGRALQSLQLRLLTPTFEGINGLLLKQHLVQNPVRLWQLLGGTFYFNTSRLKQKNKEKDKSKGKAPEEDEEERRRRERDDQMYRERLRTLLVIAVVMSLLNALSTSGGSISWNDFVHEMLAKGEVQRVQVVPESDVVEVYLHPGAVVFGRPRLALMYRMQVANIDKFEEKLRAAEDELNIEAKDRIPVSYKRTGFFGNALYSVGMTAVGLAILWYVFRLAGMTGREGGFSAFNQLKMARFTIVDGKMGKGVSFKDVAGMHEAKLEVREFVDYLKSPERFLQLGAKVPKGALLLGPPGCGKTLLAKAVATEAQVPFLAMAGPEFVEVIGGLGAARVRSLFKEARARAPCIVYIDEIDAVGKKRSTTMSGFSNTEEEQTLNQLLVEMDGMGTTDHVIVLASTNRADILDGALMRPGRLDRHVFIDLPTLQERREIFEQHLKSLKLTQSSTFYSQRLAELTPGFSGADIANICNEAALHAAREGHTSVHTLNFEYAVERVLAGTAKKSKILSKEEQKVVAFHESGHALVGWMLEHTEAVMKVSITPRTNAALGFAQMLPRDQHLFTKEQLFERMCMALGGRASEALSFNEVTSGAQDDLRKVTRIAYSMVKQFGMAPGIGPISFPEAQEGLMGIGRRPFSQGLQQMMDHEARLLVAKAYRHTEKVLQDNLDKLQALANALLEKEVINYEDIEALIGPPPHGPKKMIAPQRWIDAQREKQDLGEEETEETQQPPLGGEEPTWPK
UniProt P09132: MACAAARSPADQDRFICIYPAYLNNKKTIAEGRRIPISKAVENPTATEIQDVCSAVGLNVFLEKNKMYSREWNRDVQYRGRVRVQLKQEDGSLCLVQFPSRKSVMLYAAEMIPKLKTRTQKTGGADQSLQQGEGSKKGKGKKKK
UniProt Q9C004: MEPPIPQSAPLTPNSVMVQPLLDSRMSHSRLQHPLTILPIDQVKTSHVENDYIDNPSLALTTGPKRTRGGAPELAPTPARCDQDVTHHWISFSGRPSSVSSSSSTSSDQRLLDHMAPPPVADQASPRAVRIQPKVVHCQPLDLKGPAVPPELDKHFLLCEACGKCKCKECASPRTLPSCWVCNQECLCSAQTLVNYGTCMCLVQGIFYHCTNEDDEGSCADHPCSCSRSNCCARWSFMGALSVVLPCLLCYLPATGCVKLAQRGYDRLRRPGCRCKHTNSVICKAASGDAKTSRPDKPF
UniProt Q8NBT2: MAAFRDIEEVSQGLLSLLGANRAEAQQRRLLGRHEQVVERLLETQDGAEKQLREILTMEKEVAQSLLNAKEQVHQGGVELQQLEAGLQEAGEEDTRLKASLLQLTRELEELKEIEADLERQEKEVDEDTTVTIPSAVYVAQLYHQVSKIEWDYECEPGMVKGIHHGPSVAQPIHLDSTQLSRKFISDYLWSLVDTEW
UniProt P31948, whole entry, looked up: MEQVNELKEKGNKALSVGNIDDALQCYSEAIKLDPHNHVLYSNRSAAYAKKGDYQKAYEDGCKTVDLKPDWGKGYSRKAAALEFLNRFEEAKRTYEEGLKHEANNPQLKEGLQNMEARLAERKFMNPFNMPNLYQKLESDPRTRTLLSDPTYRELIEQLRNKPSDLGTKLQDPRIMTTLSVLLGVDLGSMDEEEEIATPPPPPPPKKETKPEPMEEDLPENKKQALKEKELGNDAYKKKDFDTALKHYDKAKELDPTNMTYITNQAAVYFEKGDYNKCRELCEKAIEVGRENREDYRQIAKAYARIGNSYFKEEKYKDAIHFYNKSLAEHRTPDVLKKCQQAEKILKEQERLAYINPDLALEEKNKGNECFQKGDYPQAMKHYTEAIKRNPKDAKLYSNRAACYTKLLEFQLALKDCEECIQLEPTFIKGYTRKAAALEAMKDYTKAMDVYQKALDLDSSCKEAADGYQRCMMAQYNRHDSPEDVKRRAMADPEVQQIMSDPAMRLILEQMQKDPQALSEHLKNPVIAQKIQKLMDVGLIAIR
UniProt Q8N3U4: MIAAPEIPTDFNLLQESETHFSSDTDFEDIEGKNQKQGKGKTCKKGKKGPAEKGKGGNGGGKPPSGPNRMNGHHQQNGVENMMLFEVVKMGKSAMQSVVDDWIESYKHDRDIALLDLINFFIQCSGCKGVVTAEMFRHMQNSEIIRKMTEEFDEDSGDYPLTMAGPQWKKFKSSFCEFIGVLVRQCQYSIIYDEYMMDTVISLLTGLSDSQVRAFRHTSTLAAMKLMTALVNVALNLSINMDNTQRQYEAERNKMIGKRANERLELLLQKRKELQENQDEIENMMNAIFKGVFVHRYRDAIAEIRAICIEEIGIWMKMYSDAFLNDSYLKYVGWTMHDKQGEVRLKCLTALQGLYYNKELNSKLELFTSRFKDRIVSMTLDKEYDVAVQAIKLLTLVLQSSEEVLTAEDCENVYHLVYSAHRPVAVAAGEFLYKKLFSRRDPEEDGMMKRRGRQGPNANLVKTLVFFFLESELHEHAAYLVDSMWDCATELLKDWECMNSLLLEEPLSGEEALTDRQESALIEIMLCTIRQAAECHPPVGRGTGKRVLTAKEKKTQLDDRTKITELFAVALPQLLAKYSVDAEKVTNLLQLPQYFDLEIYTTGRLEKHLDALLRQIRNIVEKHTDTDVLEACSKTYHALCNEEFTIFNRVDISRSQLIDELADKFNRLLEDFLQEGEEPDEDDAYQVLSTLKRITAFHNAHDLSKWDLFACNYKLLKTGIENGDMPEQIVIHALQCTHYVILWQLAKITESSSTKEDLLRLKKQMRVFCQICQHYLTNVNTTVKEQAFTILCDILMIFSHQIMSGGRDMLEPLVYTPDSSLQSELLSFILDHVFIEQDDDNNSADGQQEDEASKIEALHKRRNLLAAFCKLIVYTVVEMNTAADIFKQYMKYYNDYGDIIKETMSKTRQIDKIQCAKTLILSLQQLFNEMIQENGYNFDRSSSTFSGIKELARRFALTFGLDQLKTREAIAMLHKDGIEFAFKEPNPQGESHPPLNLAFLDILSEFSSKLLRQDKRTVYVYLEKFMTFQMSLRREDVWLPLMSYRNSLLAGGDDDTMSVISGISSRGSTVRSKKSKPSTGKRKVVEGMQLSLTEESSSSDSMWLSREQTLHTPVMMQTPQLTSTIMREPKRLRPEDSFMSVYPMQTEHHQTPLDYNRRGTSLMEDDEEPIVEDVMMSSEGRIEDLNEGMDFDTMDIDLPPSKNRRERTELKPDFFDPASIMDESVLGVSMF
UniProt P11277, whole entry, looked up: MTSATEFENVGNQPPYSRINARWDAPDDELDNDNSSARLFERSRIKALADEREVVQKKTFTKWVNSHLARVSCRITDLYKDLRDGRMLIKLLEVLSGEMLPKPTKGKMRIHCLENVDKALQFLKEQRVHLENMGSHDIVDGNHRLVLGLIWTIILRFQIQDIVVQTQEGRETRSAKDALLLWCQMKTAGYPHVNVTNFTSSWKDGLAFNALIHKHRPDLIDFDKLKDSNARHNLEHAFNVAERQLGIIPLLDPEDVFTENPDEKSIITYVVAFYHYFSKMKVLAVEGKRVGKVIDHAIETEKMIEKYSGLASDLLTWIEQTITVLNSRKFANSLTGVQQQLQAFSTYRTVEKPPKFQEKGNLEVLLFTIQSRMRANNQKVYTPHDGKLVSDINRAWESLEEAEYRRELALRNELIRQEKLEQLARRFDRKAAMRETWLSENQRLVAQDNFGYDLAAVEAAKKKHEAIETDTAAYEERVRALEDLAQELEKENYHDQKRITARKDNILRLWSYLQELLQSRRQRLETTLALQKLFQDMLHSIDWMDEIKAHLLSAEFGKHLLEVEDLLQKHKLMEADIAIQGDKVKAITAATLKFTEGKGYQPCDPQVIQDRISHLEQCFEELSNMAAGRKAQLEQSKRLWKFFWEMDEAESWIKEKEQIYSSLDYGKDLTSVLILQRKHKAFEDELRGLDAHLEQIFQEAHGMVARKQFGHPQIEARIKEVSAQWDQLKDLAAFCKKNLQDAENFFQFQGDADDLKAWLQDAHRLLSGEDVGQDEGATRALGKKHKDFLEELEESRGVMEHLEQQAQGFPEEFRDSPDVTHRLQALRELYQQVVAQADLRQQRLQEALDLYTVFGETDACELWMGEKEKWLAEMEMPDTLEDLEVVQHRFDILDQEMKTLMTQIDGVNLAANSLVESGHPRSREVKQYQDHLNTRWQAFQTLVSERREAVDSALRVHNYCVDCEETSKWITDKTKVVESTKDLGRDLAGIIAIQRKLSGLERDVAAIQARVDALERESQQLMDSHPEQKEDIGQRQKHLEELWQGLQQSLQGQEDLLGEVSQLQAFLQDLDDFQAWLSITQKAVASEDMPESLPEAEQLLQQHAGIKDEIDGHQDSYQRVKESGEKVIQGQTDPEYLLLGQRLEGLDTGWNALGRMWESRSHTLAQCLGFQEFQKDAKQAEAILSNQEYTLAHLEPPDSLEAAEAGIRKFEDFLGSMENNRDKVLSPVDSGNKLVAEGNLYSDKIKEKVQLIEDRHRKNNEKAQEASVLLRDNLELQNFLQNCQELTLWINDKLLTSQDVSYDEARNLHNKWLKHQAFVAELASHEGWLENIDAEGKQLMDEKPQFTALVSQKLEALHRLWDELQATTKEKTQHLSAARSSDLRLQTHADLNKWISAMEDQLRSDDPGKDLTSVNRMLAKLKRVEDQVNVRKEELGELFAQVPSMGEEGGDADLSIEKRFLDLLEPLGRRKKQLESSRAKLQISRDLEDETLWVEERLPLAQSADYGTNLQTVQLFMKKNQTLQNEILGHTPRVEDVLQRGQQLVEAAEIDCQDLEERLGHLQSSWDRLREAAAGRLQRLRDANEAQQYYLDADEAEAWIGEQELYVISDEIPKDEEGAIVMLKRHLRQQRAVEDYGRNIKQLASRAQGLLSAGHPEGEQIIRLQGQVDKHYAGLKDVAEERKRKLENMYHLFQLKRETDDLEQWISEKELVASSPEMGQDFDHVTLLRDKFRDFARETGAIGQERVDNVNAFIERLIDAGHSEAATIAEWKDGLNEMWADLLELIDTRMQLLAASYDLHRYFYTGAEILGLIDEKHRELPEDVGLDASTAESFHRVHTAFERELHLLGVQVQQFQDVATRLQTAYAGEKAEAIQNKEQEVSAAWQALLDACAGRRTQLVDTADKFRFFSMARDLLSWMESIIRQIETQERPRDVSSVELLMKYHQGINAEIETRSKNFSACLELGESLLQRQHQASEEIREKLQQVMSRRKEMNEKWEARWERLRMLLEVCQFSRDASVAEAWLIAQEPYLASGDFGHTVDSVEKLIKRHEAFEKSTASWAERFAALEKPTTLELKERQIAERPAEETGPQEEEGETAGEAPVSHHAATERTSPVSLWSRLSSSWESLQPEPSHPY

log2 fold change, inactive:
SSBP1 (UniProt Q04837) -0.058
STAMBP (UniProt O95630) 0.076
SPC25 (UniProt Q9HBM1) 0
SRRM1 (UniProt Q8IYB3) -0.015
SSR1 (UniProt P43307) -0.041
SRRT (UniProt Q9BXP5) 0.042
STK11 (UniProt Q15831) -0.085
SPTA1 (UniProt P02549) 0.037
SPTAN1 isoform 2 (UniProt Q13813) -0.042
SRP9 (UniProt P49458) 0.014
SPN (UniProt P16150) -0.066
SPTLC2 (UniProt O15270) 0.013
SRGN (UniProt P10124) -0.011
SRPK1 (UniProt Q96SB4) 0
SPG7 (UniProt Q9UQ90) -0.049
SRP19 (UniProt P09132) -0.061
SPRY4 (UniProt Q9C004) -0.005
SPC24 (UniProt Q8NBT2) 0.07
STAU1 (UniProt O95793) 0
SRP14 (UniProt P37108) 0.003
SRSF5 (UniProt Q13243) -0.06
SRM (UniProt P19623) 0.001
STIP1 isoform 2 (UniProt P31948) -0.006
SPATA5 (UniProt Q8NB90) -0.007
STAG2 (UniProt Q8N3U4) 0
SQLE (UniProt Q14534) 0.028
SPARC (UniProt P09486) -0.149
SPTB isoform 2 (UniProt P11277) 0.152
STAM (UniProt Q92783) -0.007
SSNA1 (UniProt O43805) -0.137
SPNS1 (UniProt Q9H2V7) -0.034
SPCS3 (UniProt P61009) -0.001
SPRYD7 (UniProt Q5W111) 0.064
ST7 (UniProt Q9NRC1) 0.01
SPTBN2 (UniProt O15020) 0.086
SPIN1 (UniProt Q9Y657) 0.029
SPCS1, A0A5F9YFS9 -0.038
ST13 (UniProt P50502) 0.02

No new results follow: an excerpt of the list.
log2 fold change, inactive:
SSNA1 (UniProt O43805) -0.137
SPNS1 (UniProt Q9H2V7) -0.034
